Measured values taken from publication doi:10.1101/2021.05.26.444586.

Molecular target: T1, MIM-FLAG (Mus musculus) (UniProt Q8R1S4)
T1 sequence: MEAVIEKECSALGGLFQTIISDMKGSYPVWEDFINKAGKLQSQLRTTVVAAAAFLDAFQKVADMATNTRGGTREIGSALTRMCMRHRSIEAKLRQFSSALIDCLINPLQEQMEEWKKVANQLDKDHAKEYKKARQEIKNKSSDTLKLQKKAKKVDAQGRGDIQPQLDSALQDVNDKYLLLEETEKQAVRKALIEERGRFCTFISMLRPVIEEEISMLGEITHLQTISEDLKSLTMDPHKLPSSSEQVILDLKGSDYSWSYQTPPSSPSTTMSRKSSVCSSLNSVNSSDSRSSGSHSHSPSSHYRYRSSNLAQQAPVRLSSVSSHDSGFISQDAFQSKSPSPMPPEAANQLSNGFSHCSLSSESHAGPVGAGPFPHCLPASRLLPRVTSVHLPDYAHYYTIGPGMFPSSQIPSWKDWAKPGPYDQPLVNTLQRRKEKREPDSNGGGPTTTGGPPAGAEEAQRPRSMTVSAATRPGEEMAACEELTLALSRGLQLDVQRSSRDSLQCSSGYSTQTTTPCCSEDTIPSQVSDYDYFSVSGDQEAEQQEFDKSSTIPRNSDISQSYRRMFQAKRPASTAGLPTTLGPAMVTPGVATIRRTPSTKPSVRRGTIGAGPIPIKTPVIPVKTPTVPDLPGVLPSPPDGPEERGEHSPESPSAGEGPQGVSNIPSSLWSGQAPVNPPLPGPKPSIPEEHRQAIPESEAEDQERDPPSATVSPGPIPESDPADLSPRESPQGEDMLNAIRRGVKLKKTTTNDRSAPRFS
Test: co-IP

EVL ΔEVH1 mutant (tagged, overexpressed) (Mus musculus) (domain or fragment)
binding: no binding

These are yes or no findings as the source states them, for the method shown. In cells and extracts the contact can be indirect. Sequences can lack the tags named with a protein.
